The campaign covered roughly 360,000 compounds. About 610 (0.17%) were called active. Inconclusive means that the source gave no clear call. Such entries were picked first, then a sample of the others. Rule as the data show it: active = inhibition above about 30%; inconclusive = no clear call, values can overlap the other calls; inactive = below that.
These compounds were tested on Botulinum neurotoxin type A light chain protease (Clostridium botulinum A str. ATCC 3502) (assay: blockers of BoNT/A LC substrate cleavage – biochemical, flow cytometry, MLPCN library, primary screen (AID 588499; also: plate controls were buffer without enzyme for full effect and enzyme alone for no effect)). Settings: multiplex microsphere protease substrate cleavage, at 10 µM, stronger effect = higher value.

| Compound | inhibition |
| --- | --- |
| CCC1(c2ccccc2)NC(=O)N(CC(=O)NNC(=O)CCN2CCN(c3ccccc3)CC2)C1=O (configuration not stated) | inconclusive: -1.9% |
| Nn1c(SC/C=C/c2ccccc2)nnc1-c1ccccn1 | inactive: -1% |
| Cc1ccc2nc(SCc3ccc([N+](=O)[O-])cc3)nc(C)c2c1 | inconclusive: 1.9% |
| CCOC(=O)c1c(C)c(C(=O)NC2CCCCCC2)c(C)n1C | inconclusive: 4.9% |
| O=C(CSc1nnc(-c2ccccc2)c(-c2ccccc2)n1)NCc1ccco1 | inactive: -0.4% |
| CC(=O)c1ccc(CCCC(=O)O)cc1 | inconclusive: -1.5% |
| Cc1cccc(C)c1NC(=O)N1CCC(c2nc3ccccc3o2)CC1 | inconclusive: 0.4% |
| O=C(NCc1ccco1)Nc1ccc(OC(F)(F)F)cc1 | inconclusive: 1.7% |
| COc1ccc2c(c1)CCc1c(C(=O)NCc3ccco3)noc1-2 | inconclusive: -1.6% |
| COc1ccc(C(=O)Nc2ccc(-c3cn4ccsc4n3)cc2)cc1S(=O)(=O)N1CCOCC1 | inconclusive: 4.1% |
| NCc1cccc(-n2cccn2)c1 | inconclusive: 2.7% |
| CCOC(=O)C1=C(c2ccccc2)NC(SCC(N)=O)=C(C#N)C1c1cccnc1 (configuration not stated) | inactive: 2.7% |
| Cc1cccc(CNC(=O)c2ccccc2N)c1 | inactive: 4.5% |
| Cc1nn(Cc2ccc(F)cc2)c2sc(C(=O)Nc3ccccc3N3CCOCC3)cc12 | inactive: -0.4% |
| CCC(C)c1ccc(S(=O)(=O)N2CCN(C(=O)c3ccc(Cl)c(S(=O)(=O)N4CCOCC4)c3)CC2)cc1 (configuration not stated) | inactive: -4.8% |
| O=c1[nH]n(CCO)c(=O)c2cccnc12 | inconclusive: 1.8% |
| O=C(O)c1ccccc1NCCO | inactive: -0.5% |
| Cc1nnc2sc(-c3ccco3)nn12 | inconclusive: -0.1% |
| COc1ccc2[nH]c3c(=O)n(CCCCC(=O)N4CCCC4)c(=S)[nH]c3c2c1 | inactive: 0% |
| CCOc1ccc(NC(=O)c2cccc(-n3cnnn3)c2)cc1 | inconclusive: -3% |
| O=C(Nc1cc(C(=O)N2CCCC2)ccc1N1CCCC1)C1CC1 | inconclusive: -1.4% |
| COc1cc(CN2CCN(S(=O)(=O)c3ccc(F)cc3)CC2)cc(OC)c1OC | inconclusive: -2.1% |
| Cc1ccc(Cn2c(C(=O)NCCCN3CCOCC3)cc3sccc32)cc1 | inactive: -1.8% |
| Cc1cc(C)n2nc(N)c(N=Nc3ccccc3)c2n1 | inconclusive: 8.2% |

Reformatted as tab-separated lines: part of the list above
Compound	inhibition
CCC1(c2ccccc2)NC(=O)N(CC(=O)NNC(=O)CCN2CCN(c3ccccc3)CC2)C1=O (configuration not stated)	inconclusive: -1.9%
Nn1c(SC/C=C/c2ccccc2)nnc1-c1ccccn1	inactive: -1%
Cc1ccc2nc(SCc3ccc([N+](=O)[O-])cc3)nc(C)c2c1	inconclusive: 1.9%
CC(=O)c1ccc(CCCC(=O)O)cc1	inconclusive: -1.5%
CCOC(=O)C1=C(c2ccccc2)NC(SCC(N)=O)=C(C#N)C1c1cccnc1 (configuration not stated)	inactive: 2.7%
Cc1nn(Cc2ccc(F)cc2)c2sc(C(=O)Nc3ccccc3N3CCOCC3)cc12	inactive: -0.4%
O=c1[nH]n(CCO)c(=O)c2cccnc12	inconclusive: 1.8%
O=C(O)c1ccccc1NCCO	inactive: -0.5%
COc1ccc2[nH]c3c(=O)n(CCCCC(=O)N4CCCC4)c(=S)[nH]c3c2c1	inactive: 0%
CCOc1ccc(NC(=O)c2cccc(-n3cnnn3)c2)cc1	inconclusive: -3%
Cc1ccc(Cn2c(C(=O)NCCCN3CCOCC3)cc3sccc32)cc1	inactive: -1.8%

Next records follow.

| Compound | inhibition |
| --- | --- |
| CN(C)CCN(C)Cc1c2ccccc2c(CN(C)CCN(C)C)c2ccccc12 | active: 33% |
| Cc1cccc(NC(=O)C2CCN(c3nccc(C)n3)CC2)c1 | inconclusive: 0.9% |
| Cc1nc2ccsc2c(=O)n1-c1ccccc1Cl | inconclusive: 1.2% |
| O=C(CN1C(=O)CC(c2ccco2)Sc2ccccc21)NCC1CCCO1 (configuration not stated) | inconclusive: 0.4% |
| COCCn1c(-c2cccc(Br)c2)nc2c(c(=O)c3ccccc3n2C)c1=O | inconclusive: -64.3% |
| O=C(O)c1ccc(S(=O)(=O)N2CCC3(CC2)CC(=O)c2ccccc2O3)cc1 | inconclusive: -1.2% |
| O=C(NCc1cccc(Cl)c1)C1CCC(=O)N(CCCN2CCCC2=O)C1 (configuration not stated) | inactive: -1% |
| O=C(NNC(=O)c1ccc(Br)cc1)c1ccncc1 | inconclusive: 5.3% |
| CCc1cc2cc3c(cc2nc1SCC(=O)Nc1c[nH]c(=O)[nH]c1=O)OCO3 | inactive: -1% |
| O=C(Cc1ccc([N+](=O)[O-])cc1)Nc1cccc(C(=O)N2CCOCC2)c1 | inactive: 0.4% |
| C=CCN1C(=O)/C(=C\C=C2\N(C)c3ccccc3C2(C)C)SC1=S | active: 41% |
| CCOc1ccc(CCNC(=O)COC(=O)CCS(=O)(=O)c2ccc(C)cc2)cc1OCC | inconclusive: -1.2% |
| CCOC(=O)NNc1ccc(C(F)(F)F)cn1 | inconclusive: 7.8% |
| CSCCC(NC(=O)c1ccco1)C(=O)Nc1ccc(C)c(S(=O)(=O)N2CCOCC2)c1 (configuration not stated) | inconclusive: -6.5% |
| CC1CCN(S(=O)(=O)c2ccc3c(c2)c(=O)c(C(=O)NC2CCCC2)cn3C)CC1 | inconclusive: -1% |
| Cn1c(=O)c(/C=C/c2ccccc2)nc2ccccc21 | active: 48.8% |
| O=C(c1cc2ccccc2oc1=O)N1CCN(CCc2ccccc2)CC1 | inconclusive: 3.2% |
| COc1ccccc1N1CCN(C(=O)CSc2nc3ccccc3o2)CC1 | inconclusive: 2.5% |
| Cc1ccc(N2CC(C(=O)OCC(=O)C(C)(C)C)CC2=O)cc1 (configuration not stated) | inactive: 0% |
| COc1ccccc1NC(=O)c1sc2nc(Cc3ccccc3)cc(C(F)(F)F)c2c1N | active: 30.2% |
| O=C(Cc1cccs1)Nc1ccon1 | inconclusive: 1.4% |
| NNC(=O)c1cn2ccccc2n1 | inconclusive: 1.8% |
| Cc1cccc(-n2c(-c3csc(C)c3)n[nH]c2=S)c1 | inconclusive: -1.6% |

— PubChem BioAssay AID588499 (NMMLSC, 2011)
